42 sequences from PMC7819943, “Rice protein-binding microarrays: a tool to detect cis-acting elements near promoter regions in rice” can be followed below.

Amino acid sequences for entries named in this document (tags omitted).
UniProt Q0JBA9, entry or part of it: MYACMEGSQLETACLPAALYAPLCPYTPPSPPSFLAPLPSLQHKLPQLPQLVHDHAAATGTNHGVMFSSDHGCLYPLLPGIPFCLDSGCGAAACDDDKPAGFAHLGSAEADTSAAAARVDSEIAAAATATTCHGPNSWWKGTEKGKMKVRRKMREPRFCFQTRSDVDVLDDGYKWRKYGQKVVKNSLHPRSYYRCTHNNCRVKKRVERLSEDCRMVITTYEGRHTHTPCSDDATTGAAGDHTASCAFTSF

Some of the results follow.

This experiment addresses OsWRKY34 (Oryza sativa, UniProt Q0JBA9 1-250). Briefly: protein-binding microarray (RPBM); PBS, 2% BSA, 51.3 ng/ul salmon testes DNA, 50 uM zinc acetate, 200 nM TF, 25 C, 1 h; high values mean tight binding. The settings on record: protein: recombinant; tags: N-terminal polyhistidine and DsRed monomer fusion (pET32a); label: CyDye5-dUTP incorporated in the synthesized complementary strand; 3' TTTTT single-stranded linker to array surface; dsDNA, one strand shown. In short, it runs like this:
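Transcription factors, each fused N-terminally to a polyhistidine tag and DsRed, were expressed in E. coli BL21-CodonPlus and purified on Ni–NTA. A custom Agilent array was made double-stranded by primer extension with Cy5-dUTP and blocked with 2% BSA. It was incubated with 200 nM protein in PBS, 2% BSA, salmon testes DNA and 50 µM zinc acetate at 25 °C for 1 h, then washed. The binding signal is per-feature fluorescence intensity (arbitrary units) read on an Axon 4000B scanner.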
Regarding “TTTAAACTCTCTTGTTCTAGCTGTCCTCTATCGATTGTTCCGGAGTCACCTAGTGCAG”, the binding signal was 10800 fluorescence intensity (a.u.).

As to “TTCTCCATTTTTTCATGGTTGACTCTAATCTTCATGACTACGGAGTCACCTAGTGCAG”, the binding signal is 8280 fluorescence intensity (a.u.).

Turning to “CTGCATGTCTACGCTCCATTGTAGTCGCCATGGTTACATTCGGAGTCACCTAGTGCAG”, the binding signal was 10900 fluorescence intensity (a.u.).

As for “TGTACTCATATTGTTTTTCTGTTTCCAGTGAAGTTTTATCCGGAGTCACCTAGTGCAG”, the binding signal is 9150 fluorescence intensity (a.u.).

For “GTCAATGTATGCCCACCAACTCCCACATAACCGCAAATTTCGGAGTCACCTAGTGCAG”, the binding signal was 8450 fluorescence intensity (a.u.).

Turning to “ATATCACAATGATTTTCGGCCCTTACCGTTCACAAAAACCCGGAGTCACCTAGTGCAG”, the binding signal is 9140 fluorescence intensity (a.u.).

“TACGGTCGTCGTCGTCGCTGCCGGCAAGGTGAGGGGAGGGCGGAGTCACCTAGTGCAG”: the binding signal was 8950 fluorescence intensity (a.u.).

Turning to “ATATGCTAATAGCTCGTCCTGTTTTAAGTAACCATCGTATCGGAGTCACCTAGTGCAG”, the binding signal was 8720 fluorescence intensity (a.u.).

Take “CATTGTGTGTTCCCTCAGTGTACTACGAGTAGCGAAATAACGGAGTCACCTAGTGCAG”: the binding signal is 8120 fluorescence intensity (a.u.).

Regarding “CTCATGTATAGATATATCTATCTCCTAACTCAACATTTCCCGGAGTCACCTAGTGCAG”, the binding signal was 9160 fluorescence intensity (a.u.).

For the sequence “TCTGAATGGCTGTTTCGTTTGATAATCGATGCCCCTAGCTCGGAGTCACCTAGTGCAG”, the binding signal is 9020 fluorescence intensity (a.u.).

For the sequence “CCGCCGCATTCTTGTCACCTTGTTGATTCTTCATTCTTGACGGAGTCACCTAGTGCAG”, the binding signal was 11900 fluorescence intensity (a.u.).

“GTAGCAATTTATGAAAAGTTTATGGACCGATGCCCCTTTTCGGAGTCACCTAGTGCAG”: the binding signal is 8210 fluorescence intensity (a.u.).

On to “GCTCACCAACAAGCTTCCTCATGTACTCATCCGTCAACTCCGGAGTCACCTAGTGCAG”, for which the binding signal was 9840 fluorescence intensity (a.u.).

Consider “TTGAATCCTCATCATCATCGCCTTAATTGCATCGGTTAATCGGAGTCACCTAGTGCAG”, for which the binding signal is 9580 fluorescence intensity (a.u.).

For “GGCACTTTTACAATTCACACGCGCGAATATTTTTTTTCCTCGGAGTCACCTAGTGCAG”, the binding signal is 8990 fluorescence intensity (a.u.).

As for “CCTCTTGTTTTCCGTTTGTATCTCATTATCTGTATCTCTCCGGAGTCACCTAGTGCAG”, the binding signal is 12000 fluorescence intensity (a.u.).

“GGCGCCATCTTTTCCGCATTCTTTCCATCCGGATTCCGGCCGGAGTCACCTAGTGCAG”: the binding signal is 9600 fluorescence intensity (a.u.).

With “TGGTTTTCCAAGATGCCTTGCGTTGTTGTTTACTCATTGTCGGAGTCACCTAGTGCAG”, the binding signal was 8820 fluorescence intensity (a.u.).

Consider “TTCTTACTAGCCCGTGTTGCTTTTTCCAGGTCTTGTCGTTCGGAGTCACCTAGTGCAG”, for which the binding signal was 14000 fluorescence intensity (a.u.).

In the case of “GGGTTTCTTTCCAACTTTTTTTTTGTTGTTGTTGCTCTCCCGGAGTCACCTAGTGCAG”, the binding signal is 10700 fluorescence intensity (a.u.).

With “TCAAACTTTCAAATTTCCATCACATCAAACCTTTCATACCCGGAGTCACCTAGTGCAG”, the binding signal is 8390 fluorescence intensity (a.u.).

As for “TATAAAGCGTGACATTCTATTCTTACATTTTTTACATCGTCGGAGTCACCTAGTGCAG”, the binding signal is 8120 fluorescence intensity (a.u.).

As to “CGCCGCTCCCGCCGCCCACCGCCTGCCGCCGCTCCCACCGCGGAGTCACCTAGTGCAG”, the binding signal is 8890 fluorescence intensity (a.u.).

For “AGATTACCTTTACTCTACTTATCTCAATTTTTTTAATCTTCGGAGTCACCTAGTGCAG”, the binding signal was 8240 fluorescence intensity (a.u.).

Turning to “TTCTCGGGGTATACTTTCATTCTCCCGATTCTATTAGATGCGGAGTCACCTAGTGCAG”, the binding signal is 8720 fluorescence intensity (a.u.).

On to “ATGACCCCTTGATTGCATAACACACATACTAGGTCATACTCGGAGTCACCTAGTGCAG”, for which the binding signal is 9110 fluorescence intensity (a.u.).

“CGCCGCCGCCACCGGGCCCGCCACCGCCGCACCAGCCGCACGGAGTCACCTAGTGCAG”: the binding signal was 10700 fluorescence intensity (a.u.).

As for “CCACGTAAGTTTATAGTAGGTTTACGCTGTCTCTCTTCTCCGGAGTCACCTAGTGCAG”, the binding signal is 8910 fluorescence intensity (a.u.).

As to “TTTTTTGATTTTTTCGGTCCGCTCTGTAAATACTTTTATTCGGAGTCACCTAGTGCAG”, the binding signal was 11300 fluorescence intensity (a.u.).

For the sequence “TTGTCGGGTAAAATTTTCTTGTACTTTCTTGGGATGCAATCGGAGTCACCTAGTGCAG”, the binding signal was 10600 fluorescence intensity (a.u.).

In the case of “TGTAAGGGTGTGGTTAGGTTGGGAGTACGTTCCTTTTGTCCGGAGTCACCTAGTGCAG”, the binding signal is 11500 fluorescence intensity (a.u.).

For the sequence “ATCGGTCCCTTGTCCGTTGTGCTCGATGGGCTCCTCCGCCCGGAGTCACCTAGTGCAG”, the binding signal was 9600 fluorescence intensity (a.u.).

Turning to “TTTTTCCTGTGGTCTAATCAAACGGTCATTCCTATATTTTCGGAGTCACCTAGTGCAG”, the binding signal is 10100 fluorescence intensity (a.u.).

As for “GGAGATCTCTATCACCTCCTCGCCGACGTCGGCCGCGCCGCGGAGTCACCTAGTGCAG”, the binding signal was 9370 fluorescence intensity (a.u.).

With “TCACTACCCATGTTTGGTTCCCGGCTGGCTCAAATTTTGTCGGAGTCACCTAGTGCAG”, the binding signal is 9580 fluorescence intensity (a.u.).

As for “TCTTCTGTTCATCCATTTTGTTTTGGATTCCCTTTTCATCCGGAGTCACCTAGTGCAG”, the binding signal was 12500 fluorescence intensity (a.u.).

Regarding “AGGATTTATTGTGTATTTACCAACAGGCCCTTAATATATTCGGAGTCACCTAGTGCAG”, the binding signal is 8160 fluorescence intensity (a.u.).

On to “AATACTTAATTAATCATGTGCTAGCCCTTGCTTCATTTTACGGAGTCACCTAGTGCAG”, for which the binding signal is 8550 fluorescence intensity (a.u.).

For the sequence “TATAAGTCGTTTTACTTTTTTCCTTGACCAAGTTTAACCACGGAGTCACCTAGTGCAG”, the binding signal is 8200 fluorescence intensity (a.u.).

With “CCTTGTCATCCACCGCGCCCACCCGCCCGGCACCCGCACACGGAGTCACCTAGTGCAG”, the binding signal was 12100 fluorescence intensity (a.u.).

As to “GCTAGTTCATCCTGTCGCCAACGTGCCAGTCTCTGTCTGACGGAGTCACCTAGTGCAG”, the binding signal is 9370 fluorescence intensity (a.u.).
